Screen size: about 340,000 compounds; about 170 (0.05%) were called active. Inconclusive results, whose numbers are uncertain, are shown with a selection of clear calls. Calls come from the whole dose curve; as a rule, active = well fitted inhibition curve with a large enough effect in the signal ratio, with a control signal flat (not every such curve was filed as active); inconclusive = small, poorly fitted or top-dose-only effect, or effect the other way, or a change in a side signal; inactive = flat fitted curve, though single readings scatter; the % refers to the signal ratio. Where the call is inconclusive, the potency comes from a doubtful curve fit.
Assay: qHTS Assay to Find Inhibitors of Chronic Active B-Cell Receptor Signaling;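 for activity change, negative = inhibition: plate controls were basal doxycycline-induced cells for no effect and cells given 10 µM MG132 for full effect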
Conditions: ABC-DLBCL IkBa-CBG/CBR reporter, luminescence ratio (green luciferase fused to IkBa over red control in TMD8 lymphoma cells), 4 h; activity change, negative = inhibition: at 46.1 µM (top of the series)
Method in brief: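 TMD8 human ABC-DLBCL cells with doxycycline-inducible IκBα–green luciferase fusion and unfused red luciferase, in 0.5% FBS medium; compounds up to 46 uM, 4 h at 37C. Green/red luminescence ratio, filter-overlap corrected, fitted to concentration-response curves.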
Potency is the fitted concentration of half-maximal effect.

| SMILES | activity change, negative = inhibition | Potency |
| --- | --- | --- |
| O=C(NC1CC(=O)N(c2ccc(F)cc2)C1)c1ccc(S(=O)(=O)N2CCCC2)cc1 (configuration not stated) | inconclusive: -15.5% |  |
| CC(=O)/C=C/c1ccccc1O | inconclusive: -26.8% |  |
| Cc1cccc2c(=O)cc(C(F)(F)F)[nH]c12 | inconclusive: 22.6% |  |
| O=C(Nc1cccnc1)c1ccc(CN2CCc3ccccc3C2)cc1 | inactive |  |
| CC(C)CC(=O)NC(Nc1ccc([N+](=O)[O-])cc1)C(Cl)(Cl)Cl (configuration not stated) | inactive |  |
| CCCCc1ccc(NC(=S)N2CCN(c3ccccn3)CC2)cc1 | inactive |  |
| CN1CCN(CCCNC(=O)c2ccc(/C=C3\Oc4ccccc4N(Cc4ccc(Cl)cc4)C3=O)cc2)CC1 | inconclusive: -26.4% |  |
| Cc1ccc2c(c1)[C@@H]1CN(C)CC[C@@H]1N2S(=O)(=O)c1ccc([N+](=O)[O-])cc1 | inactive |  |
| Cc1cnc(=O)[nH]c1SCc1cccc([N+](=O)[O-])c1 |  | inconclusive: 6.31 µM [falling, full curve] |
| N#CCC(=O)Nc1ccc(C(=O)OCC(=O)c2c[nH]c3ccccc23)cc1 | inconclusive: -19.4% |  |
| c1ccc(Cn2nnnc2C(c2cccnc2)N2CCN(c3ccccc3)CC2)cc1 (configuration not stated) | inconclusive: -2.89% |  |
| Cc1ccc2[nH]c(=O)c(-c3nc4c(C)cccn4c3NCc3ccco3)cc2c1 | inconclusive: -6.95% |  |
| Cc1cccc(CNc2ncnc3ccc(-c4cccc(Cl)c4)cc23)c1 | inactive |  |
| NC(=NCCc1c[nH]c2ccccc12)NC(=O)c1ccc(F)cc1 | inconclusive: 6.02% |  |
| CN1CCN(C(=O)C2=C[C@@H](c3ccc4c(c3)OCO4)C[C@@H](OCc3ccc(CO)cc3)O2)CC1 | inconclusive: 2.14% |  |
| COc1cc(NC(=O)CN(C)C2CCCCC2)c(C)cc1[N+](=O)[O-] | inconclusive: 20.8% |  |
| Cc1ccc(CN2CCN(C(=O)c3ccncc3)CC2)cc1 | inconclusive: 2.02% |  |
| CCC(=O)Nc1nnc(Cc2ccccc2)s1 | inconclusive: 7.61% |  |
| COc1ccc(OC)c(S(=O)(=O)NC(C)(C)C)c1 | inconclusive: -10.8% |  |
| Cc1c(Cl)cccc1N1CC(C)(C)C1=O | inconclusive: 4.51% |  |
| CCOc1cc2[nH]c(=O)n(Cc3cccc(OC)c3)c(=O)c2cc1OCC | inconclusive: 3.61% |  |

| SMILES | activity change, negative = inhibition | Potency |
| --- | --- | --- |
| S=C(Nc1ccccc1)N1CCc2ccccc21 | inconclusive: 0.956% |  |
| CC1Cc2cc(/C=C3/SC(=S)N(C)C3=O)ccc2O1 (configuration not stated) | inconclusive: 12.5% |  |
| COc1ccccc1NC(=S)N(Cc1ccco1)Cc1cc2cc(C)ccc2[nH]c1=O | inactive |  |
| COC(=O)c1cnn(-c2ccc(Cl)cc2)c1/C=N/NC(N)=S | inconclusive: 10.7% |  |
| COc1ccccc1N(C)S(=O)(=O)c1ccc(Cl)c(C(=O)NCC2(N(C)C)CCCCC2)c1 | inactive |  |
| Cn1cc(C(=O)N/N=C/c2cc(Br)cs2)c2ccccc21 | inconclusive: 5.87% |  |
| Cc1cccc(N=C2NN=C(c3ccc4c(c3)OCCO4)CS2)c1 |  | inconclusive: 17.8 µM [falling, partial curve, poor fit] |
| Cc1ccc(S(=O)(=O)NCCCCCC(=O)Nc2c(C)n(C)n(-c3ccccc3)c2=O)cc1 | inactive |  |
| C[C@]12C(=O)N(c3ccc(F)cc3)C(=O)N1[C@H]1c3ccccc3OC[C@@H]1[C@H]2c1ccccc1 | inconclusive: 5.22% |  |
| CCOC(=O)c1ccc(COC(=O)c2cc(=O)[nH]c3ccccc23)o1 | inconclusive: 4.87% |  |
| O=C(COC(=O)c1cncc(Br)c1)NCc1ccccc1 | inconclusive: 2.05% |  |
| CC1CCCCN1C(=O)Cn1cc(/C=C2/C(=O)Nc3ccccc32)c2ccccc21 (configuration not stated) | inconclusive: -0.483% |  |
| COc1ccc(/C=C/C(=O)O)cc1S(=O)(=O)NCc1ccccc1 | inconclusive: -5.69% |  |
| C/C(=C\c1ccccc1)CN1CCN(c2ccccc2)CC1 | inconclusive: 18.4% |  |
| CCCOC(=O)c1ccc(NC(=O)CSC2=Nc3ccccc3C3CC=NN23)cc1 (configuration not stated) |  | inconclusive: 18.4 µM [falling, partial curve] |
| Clc1ccc(OCCCN2CCCCC2)c(Br)c1 |  | inconclusive: 3.98 µM [falling, full curve, poor fit] |
| CCOC(=O)/C(C#N)=C(\O)c1ccc(NC(=O)c2ccc([N+](=O)[O-])cc2)cc1 | inconclusive: 2.16% |  |
| COc1cccc(OCC(=O)N2CCCc3ccccc32)c1 |  | inconclusive: 2.82 µM [falling, single point] |
| CCN(CC)c1ccc2cc(-c3nnc(-c4ccccc4)o3)c(=O)oc2c1 |  | inconclusive: 0.326 µM [falling, partial curve, poor fit] |
| COC(=O)c1ccc(C(=O)OC)c(NC(=O)CSc2cccc[n+]2[O-])c1 |  | inconclusive: 5.62 µM [cytotoxic, single point] |
| CCN1C(=O)/C(=C2/Sc3ccc(OC)cc3N2C)SC1=Nc1ccc(OC)cc1 | inconclusive: 51.8% |  |

Look-ups from above.
CCN(CC)c1ccc2cc(-c3nnc(-c4ccccc4)o3)c(=O)oc2c1 | Potency: inconclusive: 0.326 µM [falling, partial curve, poor fit]
COc1ccc(/C=C/C(=O)O)cc1S(=O)(=O)NCc1ccccc1 | activity change, negative = inhibition: inconclusive: -5.69%
C[C@]12C(=O)N(c3ccc(F)cc3)C(=O)N1[C@H]1c3ccccc3OC[C@@H]1[C@H]2c1ccccc1 | activity change, negative = inhibition: inconclusive: 5.22%
Cc1ccc(S(=O)(=O)NCCCCCC(=O)Nc2c(C)n(C)n(-c3ccccc3)c2=O)cc1 | activity change, negative = inhibition: inactive
CC1Cc2cc(/C=C3/SC(=S)N(C)C3=O)ccc2O1 (configuration not stated) | activity change, negative = inhibition: inconclusive: 12.5%

(more compounds)

| SMILES | activity change, negative = inhibition | Potency |
| --- | --- | --- |
| CC(=O)c1cccc(NC(=O)NCc2ccccn2)c1 |  | inconclusive: 29.1 µM [falling, single point] |
| Cc1cc(-c2nc3ncccc3o2)ccc1NC(=S)NC(=O)c1ccco1 | inconclusive: 11% |  |
| CC(=O)C1=C(C)Nc2ncnn2C1c1ccccc1OCc1ccccc1 (configuration not stated) | inconclusive: -11.5% |  |
| CN1CC(=O)N2[C@H](c3ccc4c(c3)OCO4)c3[nH]c4ccccc4c3C[C@@H]2C1=O |  | inconclusive: 0.126 µM [falling, full curve, poor fit] |
| Cc1ccc(O)c(NC(=O)C2CC(c3c(F)cccc3Cl)=NO2)c1 (configuration not stated) | inconclusive: -1.53% |  |
| N#Cc1c(Cl)cccc1N1CCC(C(N)=O)CC1 | inactive |  |
| CCCCCSc1nnc(-c2ccccc2N)c(=O)[nH]1 |  | inconclusive: 20.6 µM [falling, partial curve, poor fit] |
| c1cc(-c2nnn(CCOCCn3nnc(-c4ccncc4)n3)n2)ccn1 | inconclusive: 1.77% |  |
| Cc1ccc2cc(S(=O)(=O)NCCCC(=O)O)ccc2c1 |  | inconclusive: 20 µM [falling, partial curve] |
| COc1ccc2c(c1)OCC1=C2CCC2(C)C(=O)CC=C12 (configuration not stated) |  | inconclusive: 6.51 µM [falling, partial curve] |
| Cc1ccc(NC(=O)CNC(=O)c2ccc(C)s2)nc1 |  | inconclusive: 29.1 µM [falling, single point] |
| C/C(=N\NC(=O)c1cc2ccccc2cc1O)c1ccccn1 | inactive |  |
| O=C1/C(=C\c2ccccc2)CCc2c1[nH]c1ccccc21 |  | inconclusive: 29.1 µM [falling, single point] |
| Cc1ccc(C)c(N(C(=O)Cn2nnc3ccccc32)C(C(=O)NC(C)(C)C)c2ccsc2)c1 (configuration not stated) | inconclusive: 0.134% |  |
| N#Cc1ccc(-c2csc(-c3ccno3)n2)cc1 | inconclusive: 14.4% |  |
| C1CCC(C(CC2CCCCN2)C2CCCCC2)CC1 (configuration not stated) |  | inconclusive: 29.1 µM [falling, single point] |
| FC(F)(F)Sc1ccc(NC(=S)NCc2ccccc2)cc1 | inconclusive: 10.4% |  |
| O=C(CCNc1ccc(F)cc1)c1ccco1 | inconclusive: 9.98% |  |
| COc1cccc(NC(=O)CSc2nnc3[nH]c(=O)cc(-c4ccccc4)n23)c1 |  | inconclusive: 0.562 µM [falling, full curve] |
| Cn1c(=O)[nH]c(=O)c2c1nc(N1CCN(CCO)CC1)n2CCSc1nc2ccccc2s1 | inconclusive: -1.7% |  |
| CCc1sc(C(=O)N2CCN(c3ncccn3)CC2)cc1Br | inconclusive: 12% |  |

| SMILES | activity change, negative = inhibition | Potency |
| --- | --- | --- |
| COc1cccc(/C=N/NC(=O)C(=O)N/N=C/c2cccc(OC)c2OC)c1OC | inactive |  |
| Cc1cc(C(=O)OCC(=O)Nc2ccccc2C#N)c(C)o1 | inactive |  |
| Cc1nnc(SCCc2ccccc2)[nH]c1=O |  | inconclusive: 35.5 µM [falling, single point] |
| O=C(CSc1nc2ccccc2[nH]1)c1cccs1 |  | inconclusive: 20 µM [falling, partial curve] |
| O=c1[nH]c(=S)[nH]c2c1CN(Cc1ccc(F)cc1)CC2 | inactive |  |
| O=C(CCc1ccccc1)Nc1ccccc1C(=O)NCc1ccco1 | inconclusive: -2.27% |  |
| COC(=O)c1c(NC(=O)c2ccoc2C)sc2c1CCC2 | inactive |  |
| Cc1ccsc1C(=O)NCc1ccccc1Cl |  | inconclusive: 2.82 µM [falling, partial curve, poor fit] |
| Cc1cccc(NC(=O)CSc2nnc(CNC(=O)c3ccco3)o2)c1 | inactive |  |
| Cc1ccc(NC(=S)N(CCN(C)C)C(C)c2ccco2)c(C)c1 (configuration not stated) | inactive |  |
| O=C(O)/C=C\C(=O)Nc1ccc(N2CCN(c3ccc(Cl)cc3)CC2)cc1 | inconclusive: 16.2% |  |
| O=S(=O)(c1cccs1)N1CCN(CCc2ccccc2)CC1 | inconclusive: 2.14% |  |
| BrC(=C\c1ccccc1)/C=N/N1CCN(c2ccccc2)CC1 |  | inconclusive: 35.5 µM [cytotoxic, single point] |
| COc1cc(C(=O)NNC(=O)c2ccc(NC(=O)C(C)(C)C)cc2)cc(OC)c1OC | inconclusive: 5.88% |  |
| CCCN(CCC)c1ccc(/C=C/c2ccc3cc(OCC)ccc3n2)cc1 | inactive |  |
| O=C(CSc1n[nH]c(-c2ccccn2)n1)Nc1ccc(Cl)cc1 | inactive |  |
| Cc1cccc(NC(=O)CN2C(=O)S/C(=C\c3cc(C)n(C)c3C)C2=O)c1 |  | inconclusive: 14.6 µM [falling, partial curve, poor fit] |
| Cc1cccc(N=C2NN=C(c3c[nH]c4ccccc34)CS2)c1 |  | inconclusive: 29.1 µM [falling, single point] |
| COc1ccc(CCNC(=O)COC(=O)c2ccc(C)s2)cc1 | inconclusive: -1.99% |  |
